This passage reports survivor count and T/C results from PubChem BioAssay AID248 (DTP/NCI, 2004).

The list is a part of this screen's results and no random one: it gathers tests that were run many times, whatever their T/C, doses with no T/C, and many T/C values between a quarter and a half above the control. Further doses and runs are listed elsewhere. T/C gives the treated animals as a percentage of the vehicle group. Some entries give survivors of the animals treated and no T/C: the source files T/C as zero there, which appears to mark a toxic dose or a test without result, not a measured value. Some doses without a T/C left all or most animals alive at the check, yet need not have been tolerated: the source hardly ever lists a survival T/C far under the control, and the zero likely stands for such cases as well. Counts of survivors are from the toxicity check (mostly the fifth day) where no day follows; animals may have died later. Schedule codes are those of the source, read here as Q, the interval in days (D) or hours (H), X, the number of doses. Some entries were tested several times; their values stand side by side, smallest first. Some structures stand for samples that the source files as different forms (salt, stereo form or complex); doses refer to the form tested. Some schedule codes hold Z or #, which are not explained here. Where survival is the endpoint, the PubChem record calls one and a half times the control and up active, and a quarter to a half above the control has no call in these data; cut-offs in other NCI protocols can differ.

In this assay the test system is L1210 leukemia ip in BDF1 mice, survival T/C. The assay is described as follows: NCI In Vivo Anticancer Drug Screen. Data for tumor model L1210 Leukemia (intraperitoneal) in B6D2F1 (BDF1) mice. The note with it: T/C endpoint: mean survival time, higher T/C = longer survival.
Where [1] appears, read: dose: 200.0 mg/kg/injection, schedule: Q01DX001 (ip), vehicle: saline.
The mark [2] stands for this setting: dose: 400.0 mg/kg/injection, schedule: Q01DX001 (ip), vehicle: saline.
[3] abbreviates: dose: 200.0 mg/kg/injection, schedule: Q01DX009 (ip), vehicle: saline with Tween-80.
Setting [4] is: dose: 6.25 mg/kg/injection, schedule: Q01DX009 (ip), vehicle: saline.
Where [5] appears, read: dose: 50.0 mg/kg/injection, schedule: Q01DX001 (ip), vehicle: saline.
Setting [6] is: dose: 100.0 mg/kg/injection, schedule: Q01DX001 (ip), vehicle: saline.
Where [7] appears, read: dose: 400.0 mg/kg/injection, schedule: Q04DX003 (ip), vehicle: saline with Tween-80.
Where [8] appears, read: dose: 100.0 mg/kg/injection, schedule: Q01DX009 (ip), vehicle: Klucel (hydroxypropylcellulose) (HPC).
Setting [9] is: dose: 200.0 mg/kg/injection, schedule: Q01DX009 (ip), vehicle: Klucel (hydroxypropylcellulose) (HPC).
Where [10] appears, read: dose: 400.0 mg/kg/injection, schedule: Q01DX009 (ip), vehicle: Klucel (hydroxypropylcellulose) (HPC).
Setting [11] is: dose: 300.0 mg/kg/injection, schedule: Q01DX001 (ip), vehicle: saline.

For `CC[C@H](c1ccc(O)cc1)[C@@H](CC)c1ccc(O)cc1`, the survivor count (dose: 500.0 mg/kg/injection, schedule: Q01DX010 (sc), vehicle: steroid suspending solution) is 3 of 6.

For `NC(N)=N/N=C/c1nccc2ccccc12`, the survivor count reads like this: under setting [1], 2 of 4; under setting [2], 0 of 4.

For the compound `CCOC(=O)/C(C#N)=C\c1cc(OC)ccc1OC`, the survivor count under setting [3] is on record as 6 of 6 and the survivor count (dose: 400.0 mg/kg/injection, schedule: Q01DX009 (ip), vehicle: saline with Tween-80) is recorded as 5 of 6.

Take `CCCCCCCCCCCC[N+](C)(C)Cc1ccccc1`: the survivor count is 4 of 6 under setting [4]; 3 of 6 (dose: 12.5 mg/kg/injection, schedule: Q04DX003 (ip), vehicle: saline); 1 of 6 (dose: 25.0 mg/kg/injection, schedule: Q01DX001 (ip), vehicle: saline); 0 of 6 under setting [5]; 0 of 6 under setting [6]; 0 of 6 under setting [1]. The survivor count under setting [2] is on record as 0 of 6.

Regarding `CCC[CH2][Pb]([CH2]CCC)([O]C(C)=O)[O]C(C)=O`, the survivor count was 0 of 4 under setting [5], 0 of 4 under setting [6], 0 of 4 under setting [1] and 0 of 4 under setting [2].

Take `CCOC(=O)c1cnc(SC)nc1N1CC1`: the survivor count is, setting by setting: (dose: 1.0 mg/kg/injection, schedule: Q01DX Z (ip), vehicle: methylcellulose (MC)) 1 of 6; (dose: 3.0 mg/kg/injection, schedule: Q01DX Z (ip), vehicle: methylcellulose (MC)) 0 of 6; (dose: 6.0 mg/kg/injection, schedule: Q01DX Z (ip), vehicle: methylcellulose (MC)) 0 of 6; (dose: 12.0 mg/kg/injection, schedule: Q01DX Z (ip), vehicle: methylcellulose (MC)) 0 of 6; (dose: 25.0 mg/kg/injection, schedule: Q01DX Z (ip), vehicle: methylcellulose (MC)) 1 of 6; (dose: 50.0 mg/kg/injection, schedule: Q01DX Z (ip), vehicle: methylcellulose (MC)) 0 of 6. In addition, the survivor count is listed as 0 of 6 (dose: 100.0 mg/kg/injection, schedule: Q01DX Z (ip), vehicle: methylcellulose (MC)) and 0 of 6 (dose: 200.0 mg/kg/injection, schedule: Q01DX Z (ip), vehicle: methylcellulose (MC)).

Turning to `N#CC12CC3CC(CC(C3)C1)C2`, the survivor count runs as follows: (dose: 100.0 mg/kg/injection, schedule: Q01DX001 (ip), vehicle: carboxymethylcellulose (CMC)) 1 of 6; (dose: 200.0 mg/kg/injection, schedule: Q01DX001 (ip), vehicle: carboxymethylcellulose (CMC)) 0 of 6; (dose: 400.0 mg/kg/injection, schedule: Q01DX001 (ip), vehicle: carboxymethylcellulose (CMC)) 0 of 6.

Consider `CN1CC(C(=O)NO)C=C2c3cccc4[nH]cc(c34)CC21` (configuration not stated), for which, for the setting “dose: 400.0 mg/kg/injection, schedule: Q04DX003 (ip), vehicle: alcohol”, the survivor count was 0 of 6.

On to `NC(=O)c1ccccc1C(=O)c1ccccc1`, for which, under setting [2], the survivor count is reported as 0 of 6.

With `Cc1ccc(S(=O)(=O)NC(Cc2ccccc2)C(=O)CCl)cc1` (configuration not stated), the survivor count under setting [7] is given as 2 of 6.

Regarding `CC/C=C(\C)C1(C(C)C)C(=O)NC(=O)NC1=O`, the survivor count was 0 of 6 (dose: 150.0 mg/kg/injection, schedule: Q01DX001 (ip), vehicle: carboxymethylcellulose (CMC)) and 0 of 6 (dose: 300.0 mg/kg/injection, schedule: Q01DX001 (ip), vehicle: carboxymethylcellulose (CMC)).

As to `C/C(=N\NC(N)=S)c1ccccc1`, the survivor count (dose: 40.0 mg/kg/injection, schedule: Q01DX009 (ip), vehicle: Klucel (hydroxypropylcellulose) (HPC)) is listed as 3 of 6.

As to `CCCC[P+](c1ccccc1)(c1ccccc1)c1ccccc1`, the survivor count was 4 of 6 under setting [4]; 2 of 6 (dose: 50.0 mg/kg/injection, schedule: Q01DX009 (ip), vehicle: saline); 2 of 6 under setting [8]; 0 of 6 (dose: 100.0 mg/kg/injection, schedule: Q04DX003 (ip), vehicle: saline sonified); 0 of 6 under setting [9]; 0 of 6 (dose: 200.0 mg/kg/injection, schedule: Q04DX003 (ip), vehicle: saline sonified). Also, the survivor count under setting [10] was 1 of 6 and the survivor count (dose: 400.0 mg/kg/injection, schedule: Q04DX003 (ip), vehicle: saline sonified) is on record as 0 of 6.

For the compound `COc1cc(CNC2CCCCC2)ccc1O`, under setting [11], the survivor count is listed as 0 of 6.

Consider `O=Cc1ccc2cccnc2c1O`, for which, under setting [2], the survivor count is 1 of 4.

For the compound `CC(C)CP(=O)(CC(C)C)CC(C)C`, the survivor count reads like this: (dose: 12.5 mg/kg/injection, schedule: Q04DX003 (ip), vehicle: saline with Tween-80) 6 of 6; (dose: 25.0 mg/kg/injection, schedule: Q04DX003 (ip), vehicle: saline with Tween-80) 1 of 6 and 5 of 6; (dose: 50.0 mg/kg/injection, schedule: Q04DX003 (ip), vehicle: saline with Tween-80) 0 of 6; (dose: 100.0 mg/kg/injection, schedule: Q04DX003 (ip), vehicle: saline with Tween-80) 0 of 6; (dose: 200.0 mg/kg/injection, schedule: Q04DX003 (ip), vehicle: saline with Tween-80) 0 of 6; under setting [7], 0 of 6.

Take `CC(=O)OC1CCC2(C)C3=C(CCC2C1(C)C)C1(C)CCC(C(C)CCC=C(C)C)C1(C)CC3` (configuration not stated): the survivor count under setting [9] was 3 of 3.

Turning to `O=[As](O)(O[As](=O)(O)c1ccccc1)c1ccccc1`, the survivor count is, setting by setting: (dose: 80.0 mg/kg/injection, schedule: Q01DX001 (ip), vehicle: saline) 2 of 4; under setting [6], 0 of 4; under setting [1], 0 of 4; under setting [2], 0 of 4.

With `O=C1CC2CC1C1C3CCC(CC3)C21` (configuration not stated), the survivor count reads like this: (dose: 50.0 mg/kg/injection, schedule: Q01DX009 (ip), vehicle: saline with Tween-80) 2 of 3; (dose: 100.0 mg/kg/injection, schedule: Q01DX009 (ip), vehicle: saline with Tween-80) 0 of 3; under setting [3], 0 of 3.

As to `O=C(CCCN1CCC(O)(c2ccc(Cl)cc2)CC1)c1ccc(F)cc1`, the T/C (dose: 10.0 mg/kg/injection, schedule: Q01DX009 (ip), vehicle: saline) is 134 % of control and the T/C (dose: 20.0 mg/kg/injection, schedule: Q01DX009 (ip), vehicle: saline) is 128 % of control. Further, the survivor count is given as 3 of 6 (dose: 80.0 mg/kg/injection, schedule: Q01DX009 (ip), vehicle: saline); 6 of 6 (dose: 160.0 mg/kg/injection, schedule: Q01DX009 (ip), vehicle: saline); 1 of 6 (dose: 320.0 mg/kg/injection, schedule: Q04DX003 (ip), vehicle: Klucel (hydroxypropylcellulose) (HPC)).

Turning to `O=C(O)/C=C\C(=O)Nc1ccc(O)cc1`, for the setting “dose: 300.0 mg/kg/injection, schedule: Q01DX Z (ip), vehicle: saline”, the T/C was 136 % of control.

`O=[N+]([O-])C(=C\c1ccccc1)/C(=C(/Br)[N+](=O)[O-])c1ccccc1`: the survivor count under setting [11] was 1 of 6.

On to `O=C(Nc1ccccn1)Nc1ccccn1`, for which the survivor count reads like this: under setting [8], 6 of 6; under setting [9], 6 of 6; under setting [10], 0 of 6 and 6 of 6.
